Some peptides are written in HELM: one residue between dots, names in brackets for other building blocks, links after the first $.

The first data set can be described thus: general procedure: Fmoc solid-phase peptide synthesis; Rink Amide resin (loading 0.34 mmol/g); DIC/Oxyma pure. As to conditions: whole synthesis, scale of the general procedure 735 mg resin.
The substance Cys-MMP-2-aPD-L1 had an isolated yield of 21.88%.

Substance FITC-Cys-MMP-2-aPD-L1 showed an isolated yield of 12.15%.

In the case of “PEPTIDE1{[ac].I.N.L.K.A.L.A.A.L.A.K.K.I.L.[am]}$$$$V2.0”, the isolated yield came to 13.16%.

Turning to “PEPTIDE1{[ac].I.N.L.K.A.L.A.A.L.[S5].K.K.I.[S5].[am]}$PEPTIDE1,PEPTIDE1,11:R3-15:R3$$$V2.0”, the isolated yield was determined as 13.37%.

With “PEPTIDE1{[ac].I.N.L.K.A.L.A.A.[S5].A.K.K.[S5].L.[am]}$PEPTIDE1,PEPTIDE1,10:R3-14:R3$$$V2.0”, the isolated yield is on record as 19.17%.

Take “PEPTIDE1{[ac].I.N.L.K.A.L.A.[S5].L.A.K.[S5].I.L.[am]}$PEPTIDE1,PEPTIDE1,9:R3-13:R3$$$V2.0”: the isolated yield stood at 17.82%.

As to “PEPTIDE1{[ac].I.N.L.K.A.L.[S5].A.L.A.[S5].K.I.L.[am]}$PEPTIDE1,PEPTIDE1,8:R3-12:R3$$$V2.0”, the isolated yield is reported as 20.37%.

“PEPTIDE1{[ac].I.N.L.K.A.[S5].A.A.L.[S5].K.K.I.L.[am]}$PEPTIDE1,PEPTIDE1,7:R3-11:R3$$$V2.0” showed an isolated yield of 32.03%.

“PEPTIDE1{[ac].I.N.L.K.[S5].L.A.A.[S5].A.K.K.I.L.[am]}$PEPTIDE1,PEPTIDE1,6:R3-10:R3$$$V2.0”: the isolated yield was 21.18%.

In the case of “PEPTIDE1{[ac].I.N.L.[S5].A.L.A.[S5].L.A.K.K.I.L.[am]}$PEPTIDE1,PEPTIDE1,5:R3-9:R3$$$V2.0”, the isolated yield is given as 2.55%.

In turn, “PEPTIDE1{[ac].I.N.[S5].K.A.L.[S5].A.L.A.K.K.I.L.[am]}$PEPTIDE1,PEPTIDE1,4:R3-8:R3$$$V2.0” displayed an isolated yield of 10.78%.

In the case of “PEPTIDE1{[ac].I.[S5].L.K.A.[S5].A.A.L.A.K.K.I.L.[am]}$PEPTIDE1,PEPTIDE1,3:R3-7:R3$$$V2.0”, the isolated yield was 14.00%.

On to “PEPTIDE1{[ac].[S5].N.L.K.[S5].L.A.A.L.A.K.K.I.L.[am]}$PEPTIDE1,PEPTIDE1,2:R3-6:R3$$$V2.0”, for which the isolated yield was 10.59%.

Still in this data set, the particulars now being: whole synthesis, scale of the general procedure 735 mg resin, hydrocarbon staple, sequence written open.
For the substance Cys-Ly s (N3)-MP9, the isolated yield amounted to 20.69%.

Turning to Cys-Ly s (N3)-MP9-MMP2-aPD-L1, the isolated yield is reported as 5.18%.

Take Cys-MP9-MMP-2-aPD-L1: the isolated yield is given as 11.08%.

For the substance FITC-Cys-MP9, the isolated yield was determined as 12.80%.

Substance FITC-Cys-MP9-MMP-2-aPD-L1 came in with an isolated yield of 2.89%.
